Experimental data taken from patent US20260306421A1, “SYSTEMS AND METHODS FOR TRANSDERMAN PATCH DELIVERY” (VITAMAX PATCH WHOLESALER LLC, priority 2022, published 2026).

What was measured:
[1] = Recovery of cholecalciferol and cholecalciferol phosphate disodium from spiked porcine skin layers; conditions: in PG, mean ± SD, n = 3
[2] = Recovery of iron from spiked porcine skin layers; conditions: in PG, mean ± SD, n = 3

Molecule	Recovery in skin ([1]; Dermis) [%]	Recovery in skin ([1]; Epidermis) [%]	Recovery in skin ([1]; Stratum corneum) [%]	Recovery in skin ([2]; Dermis) [%]	Recovery in skin ([2]; Epidermis) [%]	Recovery in skin ([2]; Stratum corneum) [%]
C=C1CC[C@H](O)C/C1=C/C=C1\CCC[C@]2(C)[C@@H]([C@H](C)CCCC(C)C)CC[C@@H]12 [Cholecalciferol, reference compound]	102 ± 4	92 ± 2	114 ± 5			
O.O.O.O.O.O.[Cl-].[Cl-].[Cl-].[Fe+3] [Iron chloride hexahydrate, reference compound]				59 ± 17	51 ± 6	155 ± 7
CCc1occc(=O)c1[O-].CCc1occc(=O)c1[O-].CCc1occc(=O)c1[O-].[Fe+3] [Iron ethyl maltol, iron ethyl maltol]				96 ± 8	78 ± 10	104 ± 25
cholecalciferol phosphate disodium	87 ± 14	14 ± 4	79 ± 7			
